{
  "source": "paper PMC7878837",
  "about": "“Generation of Human-Induced Pluripotent Stem Cell-Derived Functional Enterocyte-Like Cells for Pharmacokinetic Studies” (Stem Cell Reports, 2021)",
  "test": "Permeability test (Papp) across hiPSC-derived enterocyte-like cell monolayer",
  "assay_type": "in vitro ADME",
  "details": "human, M3-2 medium, 37°C 2 h, n = 4",
  "experimental": "The unlabeled compounds were analyzed by LC-MS/MS. […]\nPermeability measurements\n5 was determined as follows: the culture medium for hiPS-derived enterocyte-like cells was replaced with […]\nstarted by replacing the FBS-containing HBSS buffer with substrate +/- inhibitor and incubated at 37°C for 2 h. The unlabeled compounds were analyzed by LC-MS/MS. The LC-MS/MS system consisted of a Waters ACQUITY UPLC (Waters Corporation, Milford, MA, USA) and a Waters Quattro Ultima mass spectrometer (Waters Corporation). The multiple reaction monitoring modes were used to monitor ions.\nThe detailed conditions for the analyses of the compounds are shown in Supplemental Table S1. The apparent membrane permeability coefficient (Papp) was calculated as follows. Papp ൌ ௗொௗ௧ ൈ ଵ஺஼బ Where dQ/dt is the amount of the compound permeated per unit of time, A is the surface area of insert membrane (0.33 cm2), and C0 is the initial compound concentration in the donor chamber. Differentiated cells showing TEER >30 Ω・cm2 were used. […]\n100ൈቀ1െexp൫െα ൈP௔௣௣ ൯ቁ. Where α is the scaling factor. The fitting curve was calculated by nonlinear regression using Phoenix WinNonlin (Ver. 8.1, Certara, L.P.).",
  "note": "Where two headings read alike, the source gives them in different places.",
  "data": [
    {"smiles": "CC(C)NCC(O)COc1ccc(CC(N)=O)cc1", "note": "(centres unmarked) [atenolol]", "values": [
      {"measurement": "Papp at 2 h", "setting": "D30 of differentiation, read-out: RPChiPS771 d30 Papp Mean ± SD", "result": "5.57 ± 3.54", "unit": "×10⁻⁶ cm/s"},
      {"measurement": "Papp at 2 h", "setting": "day 23 of differentiation, read-out: RPChiPS771 d23 Papp Mean ± SD", "result": "2.9 ± 0.48", "unit": "×10⁻⁶ cm/s"}
    ]}
  ]
}
